Source: article PMC13225716
These are yes or no findings as the source states them, for the method shown. In cells and extracts the contact can be indirect. Some binding calls cover weakened binding; strength is not graded here. Where a sequence is shown, tags or fusion partners need not be part of it.

Chains of the proteins cited; added tags and fusions are not shown.
UniProt P84077: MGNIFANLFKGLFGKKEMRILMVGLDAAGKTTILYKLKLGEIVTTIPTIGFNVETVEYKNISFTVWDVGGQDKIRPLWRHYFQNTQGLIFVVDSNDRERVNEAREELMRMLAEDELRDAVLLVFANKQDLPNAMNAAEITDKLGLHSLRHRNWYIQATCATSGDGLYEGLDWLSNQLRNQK

Target: T1, GST-GGA3 fusion protein (UniProt Q9NZ52)
T1 sequence: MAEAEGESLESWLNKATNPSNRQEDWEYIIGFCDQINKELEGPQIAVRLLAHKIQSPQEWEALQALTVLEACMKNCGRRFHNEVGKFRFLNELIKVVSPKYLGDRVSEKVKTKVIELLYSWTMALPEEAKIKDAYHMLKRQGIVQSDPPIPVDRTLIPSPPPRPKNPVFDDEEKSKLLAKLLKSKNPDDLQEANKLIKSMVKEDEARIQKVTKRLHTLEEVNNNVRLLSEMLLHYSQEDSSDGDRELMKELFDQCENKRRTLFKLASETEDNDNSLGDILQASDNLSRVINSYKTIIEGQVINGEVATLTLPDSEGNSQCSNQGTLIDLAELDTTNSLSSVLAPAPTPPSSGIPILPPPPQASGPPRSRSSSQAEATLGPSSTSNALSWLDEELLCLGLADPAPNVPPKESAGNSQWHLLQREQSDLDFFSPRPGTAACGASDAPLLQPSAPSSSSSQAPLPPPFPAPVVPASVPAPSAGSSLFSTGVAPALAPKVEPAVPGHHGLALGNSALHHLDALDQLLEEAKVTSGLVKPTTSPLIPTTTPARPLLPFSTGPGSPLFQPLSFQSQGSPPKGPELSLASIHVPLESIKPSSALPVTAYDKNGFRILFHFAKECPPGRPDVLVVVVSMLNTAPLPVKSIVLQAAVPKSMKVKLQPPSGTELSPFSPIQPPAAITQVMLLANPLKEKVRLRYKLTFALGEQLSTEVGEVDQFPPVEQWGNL
Test: pull-down; 60 ug GST-GGA3 pre-bound to glutathione-sepharose beads; 400 ul cell lysate in activity assay buffer, 4°C, 35 min, 9 rpm; washed, eluted in Laemmli buffer, blot for Arf1; lysates of MDAMB231 or A549 cells (adherent or suspended; DMSO or R428; siAXL or siArf1 knock-down); only the target purified

Substance: Arf1 (from UniProt P84077 1-181)
- binding: binds
